Measurements reported in PubChem BioAssay AID686938 (Drosophila RNAi Screening Center, 2013).

Aim: 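Fly genes required for calcium entry once internal stores are emptied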 (primary screen)
Cell system: Drosophila S2R+ cells
Reagent: long dsRNA against Drosophila genes, about 0.25 µg dsRNA per well, roughly 10,000 cells
Timing: 5 days of knock-down before the calcium assay
Conditions: thapsigargin (SERCA pump blocker) to empty calcium stores; entry signal taken 4 min after adding it
Measurement: 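Per-well fluo-4 fluorescence in two replicates, unnormalised, measured in resting cells and 4 min after store depletion by the SERCA blocker thapsigargin; ratio of the two present in few wells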
Direction: calcium entry signal: higher = stronger calcium signal after store depletion; resting calcium signal: higher = higher resting calcium signal
Units: calcium entry signal in fluorescence units; resting calcium signal in fluorescence units
Active means: 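Called when the plate z-score of the entry-to-rest ratio, mean of duplicates, falls below −3; wells with low overall dye signal (Fmax z below −2) or more than five off-targets excluded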
Meaning of the calls: active = strongly reduced calcium entry; inactive = no strong reduction
In all, the deposit lists about 23,000 reagents; this is an unselected part of those with a known target gene and a result. Over the whole deposit, 75 (0.33%) got an active call. 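Raw plate signals without normalisation; calls rest on plate z-scores that were not deposited; ratio present for only 364 wells.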 The numbers tell different reagents against one gene apart. No sequences are given here. Not given: the dose of the treatment.

Inx5 (GeneID 32901) | calcium entry signal, replicate 1: 5.09e7; calcium entry signal, replicate 2: 4.85e7; resting calcium signal, replicate 1: 2.37e7; resting calcium signal, replicate 2: 1.97e7; call: inactive
kat80 (GeneID 32581) #1 | calcium entry signal, replicate 1: 4.05e7; calcium entry signal, replicate 2: 2.01e7; resting calcium signal, replicate 1: 1.98e7; resting calcium signal, replicate 2: 1.01e7; call: inactive
kat80 (GeneID 32581) #2 | calcium entry signal, replicate 1: 4.38e7; calcium entry signal, replicate 2: 2.45e7; resting calcium signal, replicate 1: 2.18e7; resting calcium signal, replicate 2: 1.17e7; call: inactive
CG14480 (GeneID 36988) | calcium entry signal, replicate 1: 4.74e7; calcium entry signal, replicate 2: 5.60e7; resting calcium signal, replicate 1: 2.08e7; resting calcium signal, replicate 2: 2.54e7; call: inactive
Cdc50 (GeneID 32615) | calcium entry signal, replicate 1: 2.18e7; calcium entry signal, replicate 2: 2.64e7; resting calcium signal, replicate 1: 1.20e7; resting calcium signal, replicate 2: 1.23e7; call: inactive
wdp (GeneID 37548) | calcium entry signal, replicate 1: 3.23e7; resting calcium signal, replicate 1: 1.60e7; call: inactive
Elp6 (GeneID 41641) | calcium entry signal, replicate 1: 3.99e7; calcium entry signal, replicate 2: 4.82e7; resting calcium signal, replicate 1: 1.58e7; resting calcium signal, replicate 2: 2.14e7; call: inactive
CG33342 (GeneID 2768684) | calcium entry signal, replicate 1: 3.63e7; calcium entry signal, replicate 2: 3.80e7; resting calcium signal, replicate 1: 1.75e7; resting calcium signal, replicate 2: 1.96e7; call: inactive
Grd (GeneID 39984) | calcium entry signal, replicate 1: 3.47e7; calcium entry signal, replicate 2: 5.15e7; resting calcium signal, replicate 1: 1.77e7; resting calcium signal, replicate 2: 1.99e7; call: inactive

Entries above whose gene name begins with C or c (3):
CG14480 (GeneID 36988) | calcium entry signal, replicate 1: 4.74e7; calcium entry signal, replicate 2: 5.60e7; resting calcium signal, replicate 1: 2.08e7; resting calcium signal, replicate 2: 2.54e7; call: inactive
Cdc50 (GeneID 32615) | calcium entry signal, replicate 1: 2.18e7; calcium entry signal, replicate 2: 2.64e7; resting calcium signal, replicate 1: 1.20e7; resting calcium signal, replicate 2: 1.23e7; call: inactive
CG33342 (GeneID 2768684) | calcium entry signal, replicate 1: 3.63e7; calcium entry signal, replicate 2: 3.80e7; resting calcium signal, replicate 1: 1.75e7; resting calcium signal, replicate 2: 1.96e7; call: inactive

The results go on.
NijB (GeneID 40057) | calcium entry signal, replicate 1: 4.52e7; calcium entry signal, replicate 2: 3.10e7; resting calcium signal, replicate 1: 2.22e7; resting calcium signal, replicate 2: 1.55e7; call: inactive
CG4681 (GeneID 37928) | calcium entry signal, replicate 1: 4.33e7; calcium entry signal, replicate 2: 5.11e7; resting calcium signal, replicate 1: 2.18e7; resting calcium signal, replicate 2: 2.28e7; call: inactive
Ir7b (GeneID 31690) | calcium entry signal, replicate 1: 2.36e7; calcium entry signal, replicate 2: 2.20e7; resting calcium signal, replicate 1: 1.34e7; resting calcium signal, replicate 2: 1.27e7; call: inactive
fws (GeneID 35054) | calcium entry signal, replicate 1: 4.28e7; resting calcium signal, replicate 1: 2.24e7; call: inactive
blow (GeneID 35694) | calcium entry signal, replicate 1: 2.50e7; calcium entry signal, replicate 2: 2.02e7; resting calcium signal, replicate 1: 1.04e7; resting calcium signal, replicate 2: 1.01e7; call: inactive
TwdlT (GeneID 44790) #1 | calcium entry signal, replicate 1: 3.56e7; calcium entry signal, replicate 2: 4.90e7; resting calcium signal, replicate 1: 1.91e7; resting calcium signal, replicate 2: 2.00e7; call: inactive
TwdlT (GeneID 44790) #2 | calcium entry signal, replicate 1: 4.08e7; calcium entry signal, replicate 2: 3.57e7; resting calcium signal, replicate 1: 2.29e7; resting calcium signal, replicate 2: 1.78e7; call: inactive
GstZ2 (GeneID 41133) | calcium entry signal, replicate 1: 3.52e7; calcium entry signal, replicate 2: 3.90e7; resting calcium signal, replicate 1: 1.61e7; resting calcium signal, replicate 2: 1.94e7; call: inactive
I-t (GeneID 41414) | calcium entry signal, replicate 1: 4.19e7; calcium entry signal, replicate 2: 3.54e7; resting calcium signal, replicate 1: 2.16e7; resting calcium signal, replicate 2: 1.96e7; call: inactive
CG10226 (GeneID 38725) | calcium entry signal, replicate 1: 4.19e7; calcium entry signal, replicate 2: 3.35e7; resting calcium signal, replicate 1: 2.65e7; resting calcium signal, replicate 2: 1.55e7; call: inactive
CG14664 (GeneID 12798232) | calcium entry signal, replicate 1: 3.83e7; calcium entry signal, replicate 2: 2.21e7; resting calcium signal, replicate 1: 1.81e7; resting calcium signal, replicate 2: 9.37e6; call: inactive
CG4836 (GeneID 42387) #1 | calcium entry signal, replicate 1: 3.85e7; calcium entry signal, replicate 2: 2.79e7; resting calcium signal, replicate 1: 1.76e7; resting calcium signal, replicate 2: 1.41e7; call: inactive
CG4836 (GeneID 42387) #2 | calcium entry signal, replicate 1: 3.51e7; calcium entry signal, replicate 2: 4.84e7; resting calcium signal, replicate 1: 1.82e7; resting calcium signal, replicate 2: 2.64e7; call: inactive
